Among all 320,000 compounds or so, about 620 (0.19%) were called active. This list was built around the results that the source calls inconclusive (neither active nor inactive); the mix of calls is not that of the screen. Calls come from the whole dose curve; as a rule, active = well fitted activation curve with a large enough effect; inconclusive = small, poorly fitted or top-dose-only effect; inactive = no such curve, though single readings can be large or run the other way. Potencies of inconclusive entries are doubtful fits and often do not repeat.
Assay: qHTS Assay for Identifying a Potential Treatment of Ataxia-Telangiectasia; note: nearly all actives have a fitted effect of over 45% in size
Details: […] A-T fibroblasts, KAP-1 phosphorylation AlphaLISA, neocarzinostatin DNA damage 30 min before lysis; series mostly up to 57.5 µM
How it was run: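 hTERT-immortalized A-T patient fibroblasts ([…]), 500 cells/well in OPTI-MEM, 1% FBS, got compounds for 60 min, then NCS for 30 min at 37C. Lysates were then assayed for phospho-KAP-1 by AlphaLISA (anti-pKAP1 donor, anti-KAP1 acceptor beads), 6 hr at 25C.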
Potency is the fitted concentration of half-maximal effect.

Row | SMILES | Potency
1 | O=C(Cc1ccc(Cl)c(Cl)c1)Nc1cccnc1 | inactive
2 | Cc1ccc(Cl)cc1N1CCN(S(=O)(=O)c2cnc[nH]2)CC1 | inconclusive: 11.2 µM [activator, partial curve, poor fit]
3 | O=c1c2ccccc2[nH]c2ccccc12 | inconclusive: 17.8 µM [activator, partial curve]
4 | COc1ccc(OCCN2C(=O)c3cccc(N)c3C2=O)cc1 | inconclusive: 20 µM [activator, partial curve]
5 | O=C(CSc1nc2ccccc2c(=O)n1CCCN1CCOCC1)Nc1cccc(S(=O)(=O)N2CCCCCC2)c1 | inactive
6 | O=C(O)c1ccc(CSc2nc(-c3ccc(Cl)cc3)cc(C(F)(F)F)n2)cc1 | inconclusive: 3.16 µM [activator, partial curve]
7 | O=C(C1=C[C@H](c2ccccc2)C[C@H](OCc2ccc(CO)cc2)O1)N1CCOCC1 | inconclusive: 39.8 µM [activator, single point]
8 | COc1cc(NS(=O)(=O)c2ccc3c(c2)oc(=O)n3C)cc(OC)c1OC | inactive
9 | Nc1ccc2nc(-c3ccccc3)c(-c3ccccc3)nc2c1 | inconclusive: 15.8 µM [activator, partial curve]
10 | C/C(=N\NC(=O)COc1ccccc1-c1ccccc1)c1ccccn1 | inconclusive: 4.47 µM [activator, full curve, poor fit]
11 | CCCOC(=O)c1[nH]c2c(c1C)C(=O)CC(c1cc(OC)c(OC)c(OC)c1)C2 (stereo unspecified) | inconclusive: 0.631 µM [activator, full curve, poor fit]
12 | CCCOc1ccc(C(=O)N(CC(C)C)c2c(N)n(Cc3ccccc3)c(=O)[nH]c2=O)cc1 | inconclusive: 39.8 µM [activator, partial curve, poor fit]
13 | COc1ccc2oc(C(=O)Nc3nnc(C)s3)c(C)c2c1 | inconclusive: 0.631 µM [activator, partial curve, poor fit]
14 | c1ccc2c(c1)nc(Nc1ccc(N3CCCCC3)cc1)c1nncn12 | inconclusive: 0.708 µM [activator, full curve, poor fit]
15 | Cc1ccc(SC(CC(=O)c2ccc(F)cc2)C(=O)O)cc1 (stereo unspecified) | inconclusive: 0.708 µM [activator, partial curve, poor fit]
16 | CCCCC(O)(CCCC)C(=O)NN(C(=O)OCC)c1ccccc1 | inactive
17 | COc1ccc(CC(=O)Nc2ccc(-c3ccc4nnc(C)n4n3)cc2)cc1OC | inactive
18 | COc1ccc(C(=O)NNC(=O)c2ccccn2)cc1 | inactive
19 | CCC(C)N1CCN(S(=O)(=O)Cc2ccccc2)CC1 (stereo unspecified) | inactive
20 | CC(=O)Nc1cccc(C(=O)/C=C/c2cccs2)c1 | inconclusive: 8.91 µM [activator, full curve, poor fit]
21 | Cc1c(-c2cccs2)[n+](=O)c2c(n1[O-])CCCC2 | inactive
22 | Cc1n(CC(=O)c2ccc(F)cc2)c2ccccc2[n+]1C | inconclusive: 8.91 µM [activator, single point]
23 | CC/C(=C/c1ccccc1)c1cccc2[nH]c3c(OC)cccc3c12 | inconclusive: 39.8 µM [activator, single point]
24 | C=C(C)C(=O)Oc1ccc(N2C(=O)CCC2=O)cc1 | active: 22.4 µM

Row | SMILES | Potency
25 | COc1ccccc1OCc1ccc(C(=O)c2ccccc2)cc1 | inconclusive: 39.8 µM [activator, single point]
26 | COC(=O)c1sccc1NC(=O)Nc1ccc(C)cc1 | inconclusive: 0.708 µM [activator, full curve, poor fit]
27 | O=C(COC(=O)c1cccc(Cl)c1Cl)NC1CCCC1 | active: 17.8 µM
28 | Cc1ccc(NC(=O)CSc2nnc([C@H](C)NC(=O)OC(C)(C)C)o2)c(C)c1 | inconclusive: 0.708 µM [activator, full curve, poor fit]
29 | COc1ccc(C(=O)OCc2cc3cccc(C)c3[nH]c2=O)cc1 | inconclusive: 2 µM [activator, full curve]
30 | O=C(O)c1cc(-c2ccco2)nc2ccc(Br)cc12 | inconclusive: 0.631 µM [activator, partial curve, poor fit]
31 | Fc1ccccc1CNc1ccc(Cl)c(Cl)c1 | inconclusive: 39.8 µM [activator, single point]
32 | COc1cc(/C=C/C(=O)c2ccc(F)cc2)cc(OC)c1OC | inconclusive: 35.5 µM [activator, single point]
33 | Nc1ccccc1CNc1nc(NCCO)nc2c1ncn2CCN1CCOCC1 | inconclusive: 39.8 µM [activator, single point]
34 | CCC(C)[C@H]1CNC(=S)N1CCC12CC3CC(CC(C3)C1)C2 (stereo partly specified) | inconclusive: 31.6 µM [activator, single point]
35 | Cc1ccc(NC(=O)c2cc3ccccc3oc2=N)cc1 | inconclusive: 0.708 µM [activator, full curve, poor fit]
36 | COc1cccc(-c2sc3ccc(OC)cc3c2C#CC(C)(C)O)c1 | inconclusive: 35.5 µM [activator, partial curve]
37 | O=C(Nc1ccnn1C1CCN(Cc2ccccc2)CC1)C1CCCC1 | inactive
38 | CC(C)C(=O)Nc1nc(-c2ccc(S(=O)(=O)N3CCOCC3)cc2)cs1 | active: 12.6 µM
39 | OCCCNc1nc(-c2ccccc2)c2cc(Br)ccc2n1 | active: 39.8 µM
40 | CCN=C1SC(C(=O)Nc2cccc(C)c2)CC(=O)N1CC (stereo unspecified) | inactive
41 | Cc1nc(C(=O)NCCC(C)C)sc1C1(C)CC(c2ccccc2)=NO1 (stereo unspecified) | active: 39.8 µM
42 | CC1CCCN(S(=O)(=O)c2ccc(C(=O)Nc3nnc(C4=COCCO4)o3)cc2)C1 (stereo unspecified) | inconclusive: 2.82 µM [activator, partial curve]
43 | CCn1c(N2CCN(CC(=O)c3c[nH]c4ccccc34)CC2)nc2c1c(=O)[nH]c(=O)n2C | inconclusive: 10 µM [activator, partial curve]
44 | CCC(C)NC(=O)C1=CCN(S(=O)(=O)c2ccc(C)cc2)CC1 (stereo unspecified) | inactive
45 | O=C(NC1CC1)C1=C[C@@H](c2c[nH]c3ccccc23)C[C@@H](OCCCCO)O1 | inconclusive: 39.8 µM [activator, single point]
46 | c1ccc2c(c1)nc(N1CCCCCC1)c1ccccc12 | inconclusive: 39.8 µM [activator, single point]
47 | CCOc1cccc(-c2c(C(=O)N/N=C/c3ccc(C)s3)nnn2-c2nonc2N)c1 | inactive
48 | O=C1S/C(=C/c2ccc(N3CCOCC3)o2)C(=O)N1Cc1ccc(F)cc1 | inactive

An excerpt of these results, tab-delimited:
Row	SMILES	Potency
29	COc1ccc(C(=O)OCc2cc3cccc(C)c3[nH]c2=O)cc1	inconclusive: 2 µM [activator, full curve]
30	O=C(O)c1cc(-c2ccco2)nc2ccc(Br)cc12	inconclusive: 0.631 µM [activator, partial curve, poor fit]
31	Fc1ccccc1CNc1ccc(Cl)c(Cl)c1	inconclusive: 39.8 µM [activator, single point]
32	COc1cc(/C=C/C(=O)c2ccc(F)cc2)cc(OC)c1OC	inconclusive: 35.5 µM [activator, single point]
33	Nc1ccccc1CNc1nc(NCCO)nc2c1ncn2CCN1CCOCC1	inconclusive: 39.8 µM [activator, single point]
34	CCC(C)[C@H]1CNC(=S)N1CCC12CC3CC(CC(C3)C1)C2 (stereo partly specified)	inconclusive: 31.6 µM [activator, single point]
35	Cc1ccc(NC(=O)c2cc3ccccc3oc2=N)cc1	inconclusive: 0.708 µM [activator, full curve, poor fit]
36	COc1cccc(-c2sc3ccc(OC)cc3c2C#CC(C)(C)O)c1	inconclusive: 35.5 µM [activator, partial curve]
37	O=C(Nc1ccnn1C1CCN(Cc2ccccc2)CC1)C1CCCC1	inactive
38	CC(C)C(=O)Nc1nc(-c2ccc(S(=O)(=O)N3CCOCC3)cc2)cs1	active: 12.6 µM
39	OCCCNc1nc(-c2ccccc2)c2cc(Br)ccc2n1	active: 39.8 µM
40	CCN=C1SC(C(=O)Nc2cccc(C)c2)CC(=O)N1CC (stereo unspecified)	inactive
41	Cc1nc(C(=O)NCCC(C)C)sc1C1(C)CC(c2ccccc2)=NO1 (stereo unspecified)	active: 39.8 µM
42	CC1CCCN(S(=O)(=O)c2ccc(C(=O)Nc3nnc(C4=COCCO4)o3)cc2)C1 (stereo unspecified)	inconclusive: 2.82 µM [activator, partial curve]
43	CCn1c(N2CCN(CC(=O)c3c[nH]c4ccccc34)CC2)nc2c1c(=O)[nH]c(=O)n2C	inconclusive: 10 µM [activator, partial curve]

Continued.

Row | SMILES | Potency
49 | COc1cc(Cl)ccc1OCc1cc(C(=O)N2C[C@@H]3CCC[C@H]2C3)no1 | inactive
50 | O=C(N/N=C/c1cccc2ccccc12)c1cccnc1 | inconclusive: 1 µM [activator, full curve]
51 | COC(=O)c1c(-c2ccc(OC)cc2)oc2ccccc12 | inconclusive: 39.8 µM [activator, single point]
52 | CCc1nc2sc(C(C)=O)c(N)c2c2c1CCCC2 | inconclusive: 22.4 µM [activator, single point]
53 | CC(C)c1ccc(OCC(=O)Nc2cccc3c2CCCC3)cc1 | inconclusive: 39.8 µM [activator, partial curve]
54 | CCOC(=O)/C=C(C)\C=C\c1c[nH]c2ccccc12 | inconclusive: 31.6 µM [activator, partial curve]
55 | C/C1=C\CCC2C(/C=C(\C)CC1)OC(=O)C2CN1CCCCC1 (stereo unspecified) | inactive
56 | Cn1cc(C(=O)N/N=C/c2ccc3c(c2)OCO3)c2ccccc21 | active: 22.4 µM
57 | CC1C(=O)NN=C1C(=O)N/N=C\C(Br)=C\c1ccccc1 (stereo unspecified) | inconclusive: 12.6 µM [activator, partial curve]
58 | COc1ccc(-c2ccc(CCC(=O)O)n2-c2ccccc2O)cc1 | inconclusive: 0.708 µM [activator, full curve, poor fit]
59 | C/C=C\C=C\C(=O)Nc1cccc(C2=NOC3(C2)C[C@@H](C(N)=O)N(C(=O)C(c2ccccc2)c2ccccc2)C3)c1 (stereo partly specified) | inconclusive: 39.8 µM [activator, single point]
60 | O=C(O)c1cccc(NC2=C(Cl)C(=O)c3ccccc3C2=O)c1 | inconclusive: 4.47 µM [activator, single point]
61 | Cc1ccc(NC(=O)NC(=O)N(C(C)C)S(C)(=O)=O)nc1 | active: 0.708 µM
62 | O=C(O)CCNS(=O)(=O)c1cccc(Br)c1 | inconclusive: 10 µM [activator, partial curve, poor fit]
63 | CCCCNC(=O)c1cn(CC(C)C)c(=O)c2c1c1ccccc1n2C | inconclusive: 17.8 µM [activator, partial curve]
64 | NC(=O)c1cc2ccc(O)cc2oc1=Nc1ccccc1 | inactive
65 | CCCOc1ccc(-c2c(C(=O)N/N=C/c3ccc(C)cc3)nnn2-c2nonc2N)cc1 | inconclusive: 39.8 µM [activator, single point]
66 | O=C(O)/C=C/c1cn(Cc2ccccc2Cl)nc1-c1ccccc1 | active: 10 µM
67 | COCCN1C(=O)CS/C1=C(/C#N)C(=O)NCc1ccco1 | inconclusive: 2 µM [activator, partial curve]
68 | NS(=O)(=O)c1ccc(CCNC(=O)c2cc(-c3ccccn3)nc3ccc(Br)cc23)cc1 | inactive
69 | CSc1nc(N2CCOCC2)nc2ccc(C)cc12 | active: 28.2 µM
70 | CN(C)S(=O)(=O)c1cccc(NC(=O)CSc2cccc3cccnc23)c1 | inconclusive: 39.8 µM [activator, single point]
71 | O=C(CSc1nc2ccccc2o1)NCc1ccco1 | inconclusive: 22.4 µM [activator, partial curve]
